Data from US20170136021A1, “METHODS AND COMPOSITIONS FOR TREATING ENVELOPED VIRUSES” (priority 2014, published 2017).
For at least one compound, name, drawing or mass did not settle the structure.

How the values were obtained:
[1] = system: rVSV-EBOV-GP; type: cell-based, vesicular stomatitis virus expressing EBOV glycoprotein
[2] = system: Ebola virus; type: cell-based

CCN(CC)CCNC(=O)c1c(C)[nH]c(/C=C2\C(=O)Nc3ccc(F)cc32)c1C [sunitinib]
Ebola entry [1]: reduced Ebola entry in a dose-dependent manner | overall infection with Ebola virus [2]: dose-dependent reduction
